# In patent US20110319338A1, “PEPTIDES THAT BIND EUKARYOTIC TRANSLATION INITIATION FACTOR 4E” (The Board of Regents of the University of Texas System, priority 2008, published 2011):
# At least one compound was matched to its structure with a doubt left.
# Test system: ES-2-DualLuc cells
# Experiment: Cell-based translation assay with bicistronic R-Luc/F-Luc reporter
# Details: rapamycin 24 hours, cycloheximide 3 hours
# Method: FIGS. 2A-2F. Inhibition of cap-dependent translation and cell growth by TAT-4EBP fusion peptides. (FIG. 2A) Representation of the pIRES-DualLuc bicistronic construct containing Renilla Luciferase (R-Luc) and firefly luciferase (F-Luc) genes. In (FIG. 2B), R-Luc and F-Luc activities were assayed in ES-2-DualLuc cells following treatment for 24 hours with rapamycin and for 3 hours with cycloheximide with the indicated concentrations of these drugs, and expressed relative to the respective luciferase activities in cells incubated without drug. Cell viability was not affected by rapamycin and cycloheximide under these conditions. In (FIG. 2C), R-Luc and F-Luc activities were assayed in ES-2-DualLuc cells following treatment for 6 hours with the indicated concentrations of peptides, and expressed relative to the respective luciferase activities in cells incubated without peptide. Shown are results of triplicate assays performed independently two times, and the statistical significance of differences in relative R-Luc and F-Luc activities in cells treated with peptide at a concentration of 10 micromoles per liter. (FIG. 2D) Viability of OVCAR-3 cells at 3 days after addition of the indicated concentrations of peptides, expressed relative to viability of cells incubated without peptide. Shown are results of triplicate assays performed in two independent experiments, and statistical significances of differences in viability of cells treated with TAT-4EBP1-WT vs. TAT-4EBP1-MT, and of cells treated with TAT-4EBP2-WT vs. TAT-4EBP2-MT at a concentration of 10 micromoles per liter. (FIG. 2E) OVCAR-3 cells at 3 days after peptide addition (10 micromoles per liter) viewed under phase-contrast microscopy. (FIG. 2F) Flow cytometric analysis of staining of terminal deoxynucleotidyl transferase-mediated dUTP nick end labeling (TUNEL) in OVCAR-3 cells at 3 days after peptide addition (10 micromoles per liter). Cells incubated for 3 days in the absence of peptide in medium with and without serum are included as controls.
# FIGS. 3A-3H. Uptake, binding and inhibitory effects of [DLys6]GnRH-4EBP fusion peptides. (FIG. 3A) Sequences of [DLys6]GnRH, and wild-type and mutant 4EBP1 peptides fused to the agonist. (FIG. 3B) Western blot of GnRH-RI levels in OVCAR-3, ES-2, MDA-MB-231, BJ, HUVEC and SKOV3 cells. (FIG. 3C) Detection of biotinylated peptides in OVCAR-3 and SKOV3 by Texas Red-conjugated streptavidin at 16 hours after peptide addition (3 micromoles per liter). In (FIGS. 3D and 3E), biotinylated peptides were incubated with OVCAR-3 cell lysate as described in FIG. 1. In (FIG. 3D), peptide was pulled down using streptavidin-agarose. Precipitates (P) and supernatants (S) were analyzed by Western blot using eIF4E antibody. […]
smiles,measurement,value
CO[C@H]1C[C@@H]2CC[C@@H](C)[C@@](O)(O2)C(=O)C(=O)N2CCCC[C@H]2C(=O)O[C@H]([C@H](C)C[C@@H]2CC[C@@H](O)[C@H](OC)C2)CC(=O)[C@H](C)/C=C(\C)[C@@H](O)[C@@H](OC)C(=O)[C@H](C)C[C@H](C)/C=C/C=C/C=C/1C [rapamycin],cap-dependent translation (R-Luc read-out),inhibited cap-dependent translation (R-Luc read-out) in a dose-dependent manner
same,cap-independent translation (F-Luc readout),did not inhibit cap-independent translation
